From PMC7297531
Results are given in words; binding and its absence hold for the method and conditions named. Binding seen in cells or lysates may run through a third protein. Some entries that bind do so weakly or less than the wild type.

Sequences of proteins named here, by UniProt entry; tags and fusion partners are left off.
UniProt Q07820: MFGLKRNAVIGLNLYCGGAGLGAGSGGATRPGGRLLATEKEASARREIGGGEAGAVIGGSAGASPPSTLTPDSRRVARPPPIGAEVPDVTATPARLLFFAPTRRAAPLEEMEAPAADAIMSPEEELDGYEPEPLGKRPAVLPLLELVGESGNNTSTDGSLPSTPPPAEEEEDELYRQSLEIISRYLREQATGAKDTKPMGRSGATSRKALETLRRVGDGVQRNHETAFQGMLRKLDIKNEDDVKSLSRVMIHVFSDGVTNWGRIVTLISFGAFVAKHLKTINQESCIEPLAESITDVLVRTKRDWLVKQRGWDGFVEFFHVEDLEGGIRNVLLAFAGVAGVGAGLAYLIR

Target: T1, MARCH5 (human (endogenous in LNCaP)) (UniProt Q9NX47)
T1 sequence: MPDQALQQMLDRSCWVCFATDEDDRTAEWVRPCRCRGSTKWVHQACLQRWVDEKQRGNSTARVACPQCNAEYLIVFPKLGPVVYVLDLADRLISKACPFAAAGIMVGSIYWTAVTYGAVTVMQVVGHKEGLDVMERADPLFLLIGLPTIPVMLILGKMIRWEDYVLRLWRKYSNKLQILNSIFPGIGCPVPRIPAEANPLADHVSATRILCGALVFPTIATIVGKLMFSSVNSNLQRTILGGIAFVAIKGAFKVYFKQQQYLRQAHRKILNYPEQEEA
Experiment: co-IP; LNCaP cells pretreated with MG115 and MG132 (10 uM each) for 1 hr, then erlotinib (10 uM) or DMSO for 3 hr; lysates precipitated with anti-MARCH5 rabbit antibody and protein A agarose, blotted with anti-MCL1 mouse antibody

binding: binds
Substance: MCL1 (from UniProt Q07820 1-350)
